Nine sequences from patent publication US20070264191A1, “Materials and Methods Relating to the Treatment of Glioblastomas” (priority 2004, published 2007) can be followed below.

In this series the test system is human glioma cell lines (dGli36, SF767, U87MG, U251MG, U373MG). In words: Phage-display library (Ph.D-12) biopanning against mixed human glioma cell lines. Format: binding. The conditions noted are these: 79 phage clones sequenced after enrichment and subtraction panning.
Consider FDTPHTLTWPHG (FDTPHTLTWFHG), for which the “Frequency of occurrence (% of total clones sequenced)” value is given as 3%.

Regarding HHGHSPTSPQVR, the “Frequency of occurrence (% of total clones sequenced)” value is listed as 4%.

ILANDLTAPGPR: the “Frequency of occurrence (% of total clones sequenced)” value amounted to 5%.

On to LPYGTSNRHAPV (LPYGTSWRHAPV), for which the “Frequency of occurrence (% of total clones sequenced)” value came out at 4%.

As to LWAAFPPQASVA, the “Frequency of occurrence (% of total clones sequenced)” value was determined as 4%.

For the sequence LWATFPPRPPWL [MG11], the “Frequency of occurrence (% of total clones sequenced)” value is 19%.

Turning to SGHQLLLNKMPN [MG2], the “Frequency of occurrence (% of total clones sequenced)” value was determined as 24%.

In the case of WSAAPTKPPYHT, the “Frequency of occurrence (% of total clones sequenced)” value is 6%.

As to YVQGWNYHDLTR, the “Frequency of occurrence (% of total clones sequenced)” value amounted to 4%.
